Data from publication PMC13254535, “The RecBCD complex interacts directly with the DNA sliding clamp in Escherichia coli” (Nucleic Acids Research, 2026).
Substitutions are numbered along the chain they refer to. In names and notes the source's numbering stands. Results are given in words; binding and its absence hold for the method and conditions named. Some binding calls cover weakened binding; strength is not graded here. For some assays here: Sequences can lack the tags named with a protein. Values belong to the binder of their own block, whether it stands above or below them.

The chains behind the UniProt entries cited, without tags or fusion partners.
UniProt P0A988: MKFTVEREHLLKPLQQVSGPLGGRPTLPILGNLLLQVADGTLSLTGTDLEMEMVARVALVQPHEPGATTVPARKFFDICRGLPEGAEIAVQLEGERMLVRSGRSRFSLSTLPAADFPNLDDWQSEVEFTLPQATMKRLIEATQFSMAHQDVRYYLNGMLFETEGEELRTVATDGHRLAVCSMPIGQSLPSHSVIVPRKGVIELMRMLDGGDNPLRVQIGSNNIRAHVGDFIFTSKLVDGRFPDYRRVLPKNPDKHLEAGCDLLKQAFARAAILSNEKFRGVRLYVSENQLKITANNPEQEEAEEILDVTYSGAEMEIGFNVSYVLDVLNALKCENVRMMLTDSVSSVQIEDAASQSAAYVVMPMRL
UniProt P0A7G6: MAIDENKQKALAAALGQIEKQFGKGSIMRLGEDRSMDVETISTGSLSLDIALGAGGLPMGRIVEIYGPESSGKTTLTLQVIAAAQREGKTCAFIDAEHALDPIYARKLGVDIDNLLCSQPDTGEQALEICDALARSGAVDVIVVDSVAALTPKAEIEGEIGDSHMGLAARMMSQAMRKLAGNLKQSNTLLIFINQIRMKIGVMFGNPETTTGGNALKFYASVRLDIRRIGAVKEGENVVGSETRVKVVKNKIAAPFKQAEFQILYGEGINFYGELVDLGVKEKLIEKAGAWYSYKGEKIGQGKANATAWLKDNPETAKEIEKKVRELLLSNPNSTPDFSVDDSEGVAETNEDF

Experiments:
[1] = target: Escherichia coli β-clamp (DnaN), recombinantly expressed and purified (Escherichia coli) (UniProt P0A988); test: STD-NMR; 150 µM peptide with 1.5 µM unlabeled β-clamp, 20 mM sodium phosphate, 100 mM NaCl, 5 mM DTT, 0.3% DMSO, pH 7.4, 25°C; both purified
[2] = target: β-clamp (DnaN)-T25 fusion from pKT25-dnaN (Escherichia coli) (UniProt P0A988); test: two-hybrid; BACTH, quantitative β-galactosidase (Miller) assay, BTH101 wild type and ΔrecB backgrounds, 30°C, 0.5 mM IPTG
[3] = target: RecA–T25 fusion from pKT25-recAWT (Escherichia coli) (UniProt P0A7G6); test: two-hybrid; BACTH of RecB with RecA; read-out not told in the text (Supplementary Fig. S8)
[4] = target: β-clamp (DnaN)-T25 fusion from pKT25-dnaN (Escherichia coli) (UniProt P0A988); test: two-hybrid; BACTH, quantitative β-galactosidase assay in BTH101 recD::minitet (ΔrecD)
[5] = target: β-clamp (DnaN)-T25 fusion from pKT25-dnaN (Escherichia coli) (UniProt P0A988); test: two-hybrid; BACTH, qualitative X-gal spot (blue/white) assay on LB agar with IPTG and X-gal, 30°C, 2-3 days; an identical plate exposed to UV 15 J/m^2
[6] = target: β-clamp (DnaN)-T25 fusion from pKT25-dnaN (Escherichia coli) (UniProt P0A988); test: two-hybrid; BACTH, selective growth in M63 minimal medium with maltose, 30°C, OD600 at 24, 48, 72 h; BTH101 ΔrecA
[7] = target: β-clamp (DnaN)-T25 fusion from pKT25-dnaN (Escherichia coli) (UniProt P0A988); test: two-hybrid; BACTH, quantitative β-galactosidase assay in BTH101 ΔrecC

binding [2]: binds
B1: RecB_(Δheli)–T18 fusion (RecB nuclease domain, residues 928–1180) (domain or fragment, UniProt P08394 928-1180)
chain: AAGVASVVEEPTLTPHQFPRGASPGTFLHSLFEDLDFTQPVDPNWVREKLELGGFESQWEPVLTEWITAVLQAPLNETGVSLSQLSARNKQVEMEFYLPISEPLIASQLDTLIRQFDPLSAGCPPLEFMQVRGMLKGFIDLVFRHEGRYYLLDYKSNWLGEDSSAYTQQAMAAAMQAHRYDLQYQLYTLALHRYLRHRIADYDYEHHFGGVIYLFLRGVDKEHPQQGIYTTRPNAGLIALMDEMFAGMTLEEA

binding [2]: binds
B3: RecB_(Δnuc)–T18 fusion (RecB helicase domain, residues 1–927) (domain or fragment, UniProt P08394 1-927)
chain: MSDVAETLDPLRLPLQGERLIEASAGTGKTFTIAALYLRLLLGLGGSAAFPRPLTVEELLVVTFTEAATAELRGRIRSNIHELRIACLRETTDNPLYERLLEEIDDKAQAAQWLLLAERQMDEAAVFTIHGFCQRMLNLNAFESGMLFEQQLIEDESLLRYQACADFWRRHCYPLPREIAQVVFETWKGPQALLRDINRYLQGEAPVIKAPPPDDETLASRHAQIVARIDTVKQQWRDAVGELDALIESSGIDRRKFNRSNQAKWIDKISAWAEEETNSYQLPESLEKFSQRFLEDRTKAGGETPRHPLFEAIDQLLAEPLSIRDLVITRALAEIRETVAREKRRRGELGFDDMLSRLDSALRSESGEVLAAAIRTRFPVAMIDEFQDTDPQQYRIFRRIWHHQPETALLLIGDPKQAIYAFRGADIFTYMKARSEVHAHYTLDTNWRSAPGMVNSVNKLFSQTDDAFMFREIPFIPVKSAGKNQALRFVFKGETQPAMKMWLMEGESCGVGDYQSTMAQVCAAQIRDWLQAGQRGEALLMNGDDARPVRASDISVLVRSRQEAAQVRDALTLLEIPSVYLSNRDSVFETLEAQEMLWLLQAVMTPERENTLRSALATSMMGLNALDIETLNNDEHAWDVVVEEFDGYRQIWRKRGVMPMLRALMSARNIAENLLATAGGERRLTDILHISELLQEAGTQLESEHALVRWLSQHILEPDSNASSQQMRLESDKHLVQIVTIHKSKGLEYPLVWLPFITNFRVQEQAFYHDRHSFEAVLDLNAAPESVDLAEAERLAEDLRLLYVALTRSVWHCSLGVAPLVRRRGDKKGDTDVHQSALGRLLQKGEPQDAAGLRTCIEALCDDDIAWQTAQTGDNQPWQVNDVSTAELNAKTLQRLPGDNWRVTSYSGLQQRGHGIAQDLMPRLDVD

binding [2]: no binding
B4: RecB_(Δnuc mutQALRF)–T18 fusion (domain or fragment, UniProt P08394 1-927)
chain: B3 chain with Q485A, L487A, R488A, F489A

binding [3]: binds | binding [5]: binds | binding [6]: binds | binding [2]: binds
B5: RecB–T18 fusion, wild type, from pUT18C-recBWT (protein, UniProt P08394 1-1180)
chain: MSDVAETLDPLRLPLQGERLIEASAGTGKTFTIAALYLRLLLGLGGSAAFPRPLTVEELLVVTFTEAATAELRGRIRSNIHELRIACLRETTDNPLYERLLEEIDDKAQAAQWLLLAERQMDEAAVFTIHGFCQRMLNLNAFESGMLFEQQLIEDESLLRYQACADFWRRHCYPLPREIAQVVFETWKGPQALLRDINRYLQGEAPVIKAPPPDDETLASRHAQIVARIDTVKQQWRDAVGELDALIESSGIDRRKFNRSNQAKWIDKISAWAEEETNSYQLPESLEKFSQRFLEDRTKAGGETPRHPLFEAIDQLLAEPLSIRDLVITRALAEIRETVAREKRRRGELGFDDMLSRLDSALRSESGEVLAAAIRTRFPVAMIDEFQDTDPQQYRIFRRIWHHQPETALLLIGDPKQAIYAFRGADIFTYMKARSEVHAHYTLDTNWRSAPGMVNSVNKLFSQTDDAFMFREIPFIPVKSAGKNQALRFVFKGETQPAMKMWLMEGESCGVGDYQSTMAQVCAAQIRDWLQAGQRGEALLMNGDDARPVRASDISVLVRSRQEAAQVRDALTLLEIPSVYLSNRDSVFETLEAQEMLWLLQAVMTPERENTLRSALATSMMGLNALDIETLNNDEHAWDVVVEEFDGYRQIWRKRGVMPMLRALMSARNIAENLLATAGGERRLTDILHISELLQEAGTQLESEHALVRWLSQHILEPDSNASSQQMRLESDKHLVQIVTIHKSKGLEYPLVWLPFITNFRVQEQAFYHDRHSFEAVLDLNAAPESVDLAEAERLAEDLRLLYVALTRSVWHCSLGVAPLVRRRGDKKGDTDVHQSALGRLLQKGEPQDAAGLRTCIEALCDDDIAWQTAQTGDNQPWQVNDVSTAELNAKTLQRLPGDNWRVTSYSGLQQRGHGIAQDLMPRLDVDAAGVASVVEEPTLTPHQFPRGASPGTFLHSLFEDLDFTQPVDPNWVREKLELGGFESQWEPVLTEWITAVLQAPLNETGVSLSQLSARNKQVEMEFYLPISEPLIASQLDTLIRQFDPLSAGCPPLEFMQVRGMLKGFIDLVFRHEGRYYLLDYKSNWLGEDSSAYTQQAMAAAMQAHRYDLQYQLYTLALHRYLRHRIADYDYEHHFGGVIYLFLRGVDKEHPQQGIYTTRPNAGLIALMDEMFAGMTLEEA
binding [4]: no binding (condition: in BTH101 ΔrecD (no RecD)) | binding [7]: no binding (condition: in BTH101 ΔrecC (no RecC))

Second part, the binder before the results:

Binder: GKNQALRFV (N-terminally acetylated; C-terminally amidated) [RecB helicase motif peptide (…)]
binding [1]: no binding (tested: 150 µM peptide with 1.5 µM β-clamp)

Binder: GKNQALRAV (N-terminally acetylated; C-terminally amidated) [RecB helicase motif F-A peptide (…)]
binding [1]: no binding (tested: 150 µM peptide with 1.5 µM β-clamp)

B2: RecB_(Δheli mutQVEMEF)–T18 fusion (domain or fragment, UniProt P08394 928-1180)
chain: B1 chain with Q91A, V92A, E93A, M94A, E95A, F96A
binding [2]: no binding

Binder: KQVEMEAY (N-terminally acetylated; C-terminally amidated) [RecB nuclease motif F-A peptide (KQVEMEAY)]
binding [1]: no binding (tested: 150 µM peptide with 1.5 µM β-clamp)

B6: RecB_(F1023A)–T18 fusion from pUT18C-recB_(F1023A) (protein, UniProt P08394 1-1180)
chain: B5 chain with F1023A
binding [3]: binds
